Test results reported in article PMC7515635.

Amino acid sequences for entries named in this document (tags omitted). Residues count along the entry.
UniProt Q8S926, residues 1-118: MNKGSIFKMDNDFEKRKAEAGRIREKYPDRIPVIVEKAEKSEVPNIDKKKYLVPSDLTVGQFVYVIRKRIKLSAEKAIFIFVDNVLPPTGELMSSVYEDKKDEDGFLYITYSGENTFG
UniProt Q9FG23: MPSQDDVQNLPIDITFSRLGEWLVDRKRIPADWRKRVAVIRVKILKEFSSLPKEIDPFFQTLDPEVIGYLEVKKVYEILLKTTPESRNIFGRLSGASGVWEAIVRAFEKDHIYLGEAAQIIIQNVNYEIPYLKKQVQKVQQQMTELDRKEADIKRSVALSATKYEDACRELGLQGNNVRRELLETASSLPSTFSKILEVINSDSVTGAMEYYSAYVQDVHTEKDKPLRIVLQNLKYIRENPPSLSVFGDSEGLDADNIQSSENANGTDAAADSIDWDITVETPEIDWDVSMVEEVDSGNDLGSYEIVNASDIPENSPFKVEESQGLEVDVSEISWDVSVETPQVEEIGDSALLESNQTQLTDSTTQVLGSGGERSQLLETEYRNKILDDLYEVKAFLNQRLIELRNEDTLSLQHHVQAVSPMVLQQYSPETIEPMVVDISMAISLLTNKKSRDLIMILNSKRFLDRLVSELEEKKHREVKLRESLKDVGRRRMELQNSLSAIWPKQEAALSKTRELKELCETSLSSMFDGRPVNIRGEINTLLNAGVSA

Biological target: mCherry-ATG8E (Arabidopsis thaliana) (UniProt Q8S926)
Assay: affinity purification with mass spectrometry; RFP-Trap of extracts of Arabidopsis seedlings expressing mCherry-ATG8E, ER stress by tunicamycin, peptide competition with AIM wt or AIM mut

- binding: binds
Substance: AtC53 (endogenous) (from UniProt Q9FG23 1-549)

No constants are given. Whether binding was seen depends on the method and setting. Binding seen in cells or lysates may run through a third protein. Here binding means that the protein was enriched with, or labelled near, the bait; the list need not be complete.
